Assay results as given in US11028111B2, “Compound for treating metabolic diseases and preparation method and use thereof” (Xi' An Biocare Pharma Ltd., priority 2017, dated 2021).
The name of at least one read-out is uncertain. For at least one compound, name, drawing or mass did not settle the structure.

Tested on: 17α-Ethinylestradiol (E2-17α) induced cholestasis in rats
Test: Bile discharge in 17α-ethinylestradiol (E2-17α) induced cholestasis in rats
Type: in vivo, Sprague Dawley rats
Conditions: E2-17α cholestasis rats; for Bile discharge amount at 30 min / Bile discharge amount at 45 min / Bile discharge amount at 60 min / Bile discharge amount at 75 min / Bile discharge amount at 90 min / Bile discharge amount at 105 min / Bile discharge amount at 120 min / Bile discharge amount at 15 min: i.g., test compounds 5-5.9 mg/kg, UDCA 15 mg/kg, OCA 10 mg/kg, x ± s; for Bile discharge amount at 15 min: bile collected 15 min
Protocol: Preparation of 1.0% CMC-Na solution: 1 p CMC-Na powder was weighed and added to 100 mL (50° C.) of distilled water, the mixture was rapidly stirred with a stirrer for 1 hour to fully swell, thereby to obtain a 1% CMC-Na solution.
Preparation of E2-17α solution in propylene glycol: 54/0.98=56 mp of E2-17α was weighed, dissolved in […] of propane-1,2-diol, shaked by a vortexer for 1 hour, thereby to obtain a 7 mp/mL suspension of E2-17α.
17α-Ethinylestradiol (E2-17α) was administered by subcutaneous injection into the neck for model establishment for 7 days. Meantime, the test compounds were suspended in a 1% CMC-Na solution and administered by intragastric administration for 7 days during the E2-17α modeling.
E2-17α in propylene glycol was administered to rats for 7 days to establish the model, and different test samples in CMC-Na solution were administered by intragastric administration. On the 8th day, 1 mL of rat fasting blood sample was collected for detection of serum biochemical indicators, and E2-17α in propylene glycol was continuously administered to establish the model, and different test samples CMC-Na solution were administered by intragastric administration. After 0.5 hours of administration on the 9th day, the rats were weighed and anesthetized with 10% urethane (10 mL/kg) via intraperitoneal injection. After anesthesia, the rat was fixed on a board. A midline abdominal incision was made from the upper acetabular area, and the incision was about 2 to 3 cm. The indoor temperature should be maintained during the experiment, the body temperature of the rats was maintained and bile outflow was promoted. Handle of ophthalmic forceps was used to turn the liver up and find the duodenum and stomach junction. A suture (size 0) was placed at the junction to reserve. On the duodenum, about 2 cm away from the pylorus, a thin tube with a yellow transparent tube perpendicular to the duodenum could be found passing through the pancreas, that is, the common bile duct. At the junction of the common bile duct and the duodenum, the common bile duct was separated by an ophthalmic curved forceps, but was careful not to break the small blood vessels around the bile duct and avoided stimulating the pancreatic tissue by hand. After the separation, two sutures were place, and the suture close to the intestine end was ligated, as a traction suture, ophthalmic scissors were used to obliquely cut a small opening in the wall of the tube, a prepared pancreatic juice collection tube was inserted into the small opening. A mixture of yellow bile and pancreatic juice flowed out immediately after the insertion. The tube was ligated and fixed, and this tube was used to collect bile. After completion of the intubation, the skin was sutured. The other end of the bile duct intubation was taken out, flowing out to a fixed 0.5 mL centrifuge tube. Bile was continuously collected 8 times once every 15 minutes, until 120 minutes.
After completion of the intubation, the skin was sutured to prevent water evaporation of the abdominal cavity. The other end of the bile duct intubation was taken out, and the bile flowed out to a fixed 0.5 mL collection tube. Bile was continuously collected 8 times once every 15 minutes for a total of 120 minutes. Before the experiment, the collection tube was accurately weighed using an analytical balance. After the bile was collected in the experiment, the total weight of the bile and the collection tube was weighed, and the weight of the bile in the tube was calculated by subtraction and converted to a volume based on 1 g/mL.
The data were analyzed using SPSS18.0 statistics software. Measurement data were compared between the two groups using the t test. Multiple groups of means were compared using one-way analysis of variance (ANOVA) and multiple comparisons between groups. Data mean±standard error (Mean±SEM.) or mean±standard deviation (Mean±SD.).

Structure (SMILES) | Effect of promoting bile excretion with the prolongation of the time after administration (10 mg/kg) | Bile discharge amount at 30 min | Bile discharge amount at 45 min | Bile discharge amount at 60 min | Bile discharge amount at 75 min | Bile discharge amount at 90 min | Bile discharge amount at 105 min | Bile discharge amount at 120 min | Bile discharge amount at 15 min
CC[C@H]1[C@@H](O)[C@@H]2[C@H](CC[C@]3(C)[C@@H]([C@H](C)CCC(=O)O)CC[C@@H]23)[C@@]2(C)CC[C@@H](O)C[C@@H]12 [OCA, obeticholic acid, reference compound] | gradually reduced | 49.73 mg/kg/min | 47.97 mg/kg/min | 44.84 mg/kg/min | 43.77 mg/kg/min | 41.42 mg/kg/min | 38.56 mg/kg/min | 37.33 mg/kg/min | 51.23 mg/kg/min
C[C@H](CCC(=O)O)[C@H]1CC[C@H]2[C@@H]3[C@@H](O)C[C@@H]4C[C@H](O)CC[C@]4(C)[C@H]3CC[C@]12C [UDCA, ursodeoxycholic acid, reference compound] | – | 47.70 mg/kg/min | 45.14 mg/kg/min | 44.58 mg/kg/min | 43.09 mg/kg/min | 40.08 mg/kg/min | 43.72 mg/kg/min | 41.11 mg/kg/min | 52.36 mg/kg/min
